# Data as given in PubChem BioAssay AID1259259 (Sanger Institute, 2017).
# Aim: 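Kinase silencing that lowers colorectal cancer cell viability alone or with drugs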 (primary screen)
# Cells: SW1463 human colorectal cancer cells
# Knock-down reagent: siRNA pool against human genes
# Challenge: DMSO vehicle, or one anchor drug: BYL719 at 1 µM, cetuximab at 5 µg/ml, or trametinib at 10 nM
# Measurement: 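Viability relative to control pool 2 (non-targeting) averaged over replicates, robust z-score for knock-down with no drug, and for each anchor drug the mean synergy score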
# Direction: robust z-score, knock-down alone: higher = more viable cells after knock-down; viability, knock-down alone: higher = more viable cells; synergy score with BYL719 and synergy score with cetuximab and synergy score with trametinib: higher = stronger synergy (synthetic lethal) with drug
# Active means: 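Knock-down called essential when its robust z-score without drug falls below -3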
# Calls: active = essential: viability loss from knock-down alone; inactive = no change from knock-down alone
# In all, the deposit lists 794 reagents; this is a part drawn at random. Over the whole deposit, 9 (1.1%) were called active. 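Calls rest on knock-down alone, not drug synergy; viability values seem capped at 1.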 Not given: the amount of reagent, the time to read-out.
gene,"robust z-score, knock-down alone","viability, knock-down alone (fraction of control)",synergy score with BYL719,synergy score with cetuximab,synergy score with trametinib,call
TESK2 (testis associated actin remodelling kinase 2),-0.595,0.889,-0.0723,-0.036,-0.0435,inactive
ACVR2A (activin A receptor type 2A),0.391,0.953,0.074,0.0533,0.105,inactive
NEK6 (NIMA related kinase 6),1.13,1,0,-0.0159,-0.0326,inactive
MAP3K15 (mitogen-activated protein kinase kinase kinase 15),1.13,1,0.0344,0.133,0.154,inactive
MOK (MOK protein kinase),-0.62,0.888,-0.112,0.0905,-0.0992,inactive
"NRAS (NRAS proto-oncogene, GTPase)",1.13,1,0.061,-0.0272,-0.0326,inactive
BRSK1 (BR serine/threonine kinase 1),0.309,0.947,-0.0525,0.0382,0.0735,inactive
"LCK (LCK proto-oncogene, Src family tyrosine kinase)",0.241,0.943,0.0724,-0.0332,0.082,inactive
"RAF1 (Raf-1 proto-oncogene, serine/threonine kinase)",0.0342,0.93,-0.0597,0.12,-0.101,inactive
CDK4 (cyclin dependent kinase 4),-2.32,0.779,-0.221,-0.0261,-0.247,inactive
PIK3R1 (phosphoinositide-3-kinase regulatory subunit 1),0.583,0.965,-0.0149,0.126,-0.0584,inactive
GRK7 (G protein-coupled receptor kinase 7),-0.722,0.881,-0.0452,-0.0543,0.0729,inactive
AXIN2 (axin 2),1.13,1,0.0416,0.189,0.0932,inactive
MPP3 (MAGUK p55 scaffold protein 3),-2.45,0.77,0.028,0.171,0.012,inactive
PNKP (polynucleotide kinase 3'-phosphatase),0.378,0.952,0.00545,-0.0147,-0.0791,inactive
AKT1 (AKT serine/threonine kinase 1),-0.225,0.913,-0.0868,0.133,-0.0741,inactive
SLK (STE20 like kinase),1.13,1,0.0701,0.0994,0.0864,inactive
FRK (fyn related Src family tyrosine kinase),0.845,0.982,-0.0181,-0.0448,0.0639,inactive
PDK4 (pyruvate dehydrogenase kinase 4),-0.107,0.921,-0.0792,-0.0346,0.113,inactive
MAGI1,-0.448,0.899,-0.101,0.0351,-0.13,inactive
PRKX (protein kinase cAMP-dependent X-linked catalytic subunit),1.13,1,0,0.0579,-0.0108,inactive
MAP3K14 (mitogen-activated protein kinase kinase kinase 14),-0.722,0.881,-0.119,-0.0533,-0.0921,inactive
PIP5K1C (phosphatidylinositol-4-phosphate 5-kinase type 1 gamma),-0.492,0.896,0.0319,0.154,0.238,inactive
AK1 (adenylate kinase 1),1.13,1,0.0937,-0.0245,-0.0326,inactive
MAPK13 (mitogen-activated protein kinase 13),0.432,0.955,-0.0107,0.168,0.199,inactive
LMTK1 (lemur tail kinase 1),-1.05,0.86,0.0754,0.0462,0.0365,inactive
TAOK2 (TAO kinase 2),0.444,0.956,-0.0439,-0.0699,0.0517,inactive
EPHA2 (EPH receptor A2),-0.308,0.908,-0.092,-0.0188,-0.005,inactive
CTCF (CCCTC-binding factor),1.13,1,0.112,0.0308,0.142,inactive
FGFR3 (fibroblast growth factor receptor 3),-1.44,0.835,0.00786,0.119,0.103,inactive
CERK (ceramide kinase),0.613,0.967,0.107,0.184,0.179,inactive
"PFKM (phosphofructokinase, muscle)",-0.318,0.907,0.0238,0.128,-0.00979,inactive
ERBB3 (erb-b2 receptor tyrosine kinase 3),-1.31,0.844,0.0385,-0.132,-0.0996,inactive
PAPSS1 (3'-phosphoadenosine 5'-phosphosulfate synthase 1),0.151,0.937,-0.0483,0.0325,-0.00365,inactive
PIK3C2G,-0.749,0.88,0.0151,0.225,0.144,inactive
PSTK (phosphoseryl-tRNA kinase),1.13,1,0.0554,0.0186,0.121,inactive
IKBKG,0.113,0.935,-0.0651,0.0699,-0.00849,inactive
CPNE3 (copine 3),0.966,0.99,0.00925,0.113,0.0941,inactive
CAMK1 (calcium/calmodulin dependent protein kinase I),-1.57,0.827,-0.107,0.128,0.0366,inactive
PRKG1 (protein kinase cGMP-dependent 1),1.13,1,0,0.051,0.0204,inactive
DYRK3 (dual specificity tyrosine phosphorylation regulated kinase 3),-0.48,0.897,-0.0847,-0.128,-0.079,inactive
FGFRL1 (fibroblast growth factor receptor like 1),0.416,0.954,0.149,0.101,0.0985,inactive
CALM2 (calmodulin 2),0.985,0.991,-0.00699,0.084,-0.0414,inactive
CASP8 (caspase 8),-0.149,0.918,-0.0559,-0.0104,-0.0153,inactive
CDADC1 (cytidine and dCMP deaminase domain containing 1),-0.459,0.898,0.124,0.0248,0.0565,inactive
BCR (BCR activator of RhoGEF and GTPase),-1.4,0.838,-0.0979,-0.169,0.0391,inactive
PIP4K2C (phosphatidylinositol-5-phosphate 4-kinase type 2 gamma),1.13,1,0,0.138,0.0672,inactive
"ABL2 (ABL proto-oncogene 2, non-receptor tyrosine kinase)",0.0098,0.928,-0.00287,-0.0703,0.117,inactive
NADK (NAD kinase),-0.849,0.873,-0.055,0.00312,-0.038,inactive
CDKL5 (cyclin dependent kinase like 5),-0.329,0.906,-0.0292,0.0815,-0.0437,inactive

Copied from the listing for reference:
gene,"robust z-score, knock-down alone","viability, knock-down alone (fraction of control)",synergy score with BYL719,synergy score with cetuximab,synergy score with trametinib,call
TAOK2 (TAO kinase 2),0.444,0.956,-0.0439,-0.0699,0.0517,inactive
EPHA2 (EPH receptor A2),-0.308,0.908,-0.092,-0.0188,-0.005,inactive
CTCF (CCCTC-binding factor),1.13,1,0.112,0.0308,0.142,inactive
FGFR3 (fibroblast growth factor receptor 3),-1.44,0.835,0.00786,0.119,0.103,inactive
CERK (ceramide kinase),0.613,0.967,0.107,0.184,0.179,inactive
"PFKM (phosphofructokinase, muscle)",-0.318,0.907,0.0238,0.128,-0.00979,inactive
